The assay concerns the target Tripartite motif 22 (TRIM22) (UniProt Q8IYM9). Put plainly: co-IP; 293T cells transfected with TRIM22-expressing plasmid; 24 h post-transfection 90 % of WCE immunoprecipitated 2 h at 4 °C with anti-TRIM22 (Abnova) Ab, Dynabeads protein G; western blot with anti-Sp1.

The chains behind the UniProt entries cited, without tags or fusion partners.
UniProt Q8IYM9: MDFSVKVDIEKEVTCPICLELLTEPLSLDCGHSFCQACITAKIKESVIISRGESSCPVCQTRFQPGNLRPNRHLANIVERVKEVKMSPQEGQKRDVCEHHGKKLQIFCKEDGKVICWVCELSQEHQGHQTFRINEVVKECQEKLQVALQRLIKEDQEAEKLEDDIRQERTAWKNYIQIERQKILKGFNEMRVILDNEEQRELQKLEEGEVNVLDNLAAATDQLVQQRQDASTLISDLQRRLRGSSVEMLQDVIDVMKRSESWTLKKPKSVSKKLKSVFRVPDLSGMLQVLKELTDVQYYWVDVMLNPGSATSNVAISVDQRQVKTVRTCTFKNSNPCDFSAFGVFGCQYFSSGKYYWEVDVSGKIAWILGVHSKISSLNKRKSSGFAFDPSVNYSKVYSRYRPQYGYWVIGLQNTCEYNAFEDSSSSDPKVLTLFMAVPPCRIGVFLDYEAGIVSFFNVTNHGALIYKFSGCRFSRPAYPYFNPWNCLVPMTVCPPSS
UniProt P08047: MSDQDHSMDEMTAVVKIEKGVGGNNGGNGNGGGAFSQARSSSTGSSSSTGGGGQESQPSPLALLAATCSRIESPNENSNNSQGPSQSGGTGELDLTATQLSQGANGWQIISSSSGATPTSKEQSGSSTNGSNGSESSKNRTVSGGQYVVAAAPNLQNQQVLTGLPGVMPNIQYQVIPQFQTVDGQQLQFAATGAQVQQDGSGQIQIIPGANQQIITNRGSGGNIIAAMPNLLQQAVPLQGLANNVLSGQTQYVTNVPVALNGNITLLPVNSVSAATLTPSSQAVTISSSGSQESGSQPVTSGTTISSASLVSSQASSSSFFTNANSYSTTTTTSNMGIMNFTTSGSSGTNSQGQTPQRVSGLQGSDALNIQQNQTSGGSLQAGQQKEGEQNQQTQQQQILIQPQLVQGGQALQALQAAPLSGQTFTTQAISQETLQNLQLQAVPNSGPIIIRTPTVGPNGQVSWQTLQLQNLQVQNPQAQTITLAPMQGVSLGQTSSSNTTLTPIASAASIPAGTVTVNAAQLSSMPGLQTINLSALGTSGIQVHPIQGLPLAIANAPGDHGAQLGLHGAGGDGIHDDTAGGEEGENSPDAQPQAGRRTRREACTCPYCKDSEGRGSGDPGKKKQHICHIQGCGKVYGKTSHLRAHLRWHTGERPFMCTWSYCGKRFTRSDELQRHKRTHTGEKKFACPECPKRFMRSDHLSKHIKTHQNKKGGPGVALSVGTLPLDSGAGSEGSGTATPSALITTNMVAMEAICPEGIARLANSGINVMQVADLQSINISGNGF

No constants are given. Whether binding was seen depends on the method and setting. In cells and extracts the contact can be indirect.

In the case of “transcription factor specificity protein 1 (Sp1) (from UniProt P08047 1-785)”, the binding entry is “no binding”.
